Measured values from publication PMC7788524.
Results are given in words; binding and its absence hold for the method and conditions named. In cells and extracts the contact can be indirect. Some entries that bind do so weakly or less than the wild type.

The chains behind the UniProt entries cited, without tags or fusion partners.
UniProt P05556: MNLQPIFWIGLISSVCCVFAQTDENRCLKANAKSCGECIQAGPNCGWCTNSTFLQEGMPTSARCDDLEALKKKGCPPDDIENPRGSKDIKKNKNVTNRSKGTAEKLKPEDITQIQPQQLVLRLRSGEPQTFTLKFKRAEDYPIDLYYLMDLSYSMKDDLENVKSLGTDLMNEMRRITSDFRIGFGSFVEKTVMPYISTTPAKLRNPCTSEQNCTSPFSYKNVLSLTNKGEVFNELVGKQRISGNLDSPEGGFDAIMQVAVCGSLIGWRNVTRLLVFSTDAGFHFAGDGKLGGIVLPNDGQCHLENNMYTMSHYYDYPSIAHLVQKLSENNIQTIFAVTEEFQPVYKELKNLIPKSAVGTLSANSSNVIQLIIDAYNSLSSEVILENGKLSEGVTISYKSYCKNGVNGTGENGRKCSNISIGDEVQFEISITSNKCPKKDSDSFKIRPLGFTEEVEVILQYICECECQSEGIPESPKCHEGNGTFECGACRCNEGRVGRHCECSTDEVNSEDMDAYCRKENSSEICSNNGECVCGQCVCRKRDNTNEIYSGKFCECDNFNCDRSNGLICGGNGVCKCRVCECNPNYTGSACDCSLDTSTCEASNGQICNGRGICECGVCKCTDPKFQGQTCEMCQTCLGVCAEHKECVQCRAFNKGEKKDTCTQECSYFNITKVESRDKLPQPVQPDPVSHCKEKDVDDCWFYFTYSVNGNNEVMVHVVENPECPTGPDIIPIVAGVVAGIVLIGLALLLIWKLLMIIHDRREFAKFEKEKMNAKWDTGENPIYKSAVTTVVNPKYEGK

How the values were obtained:
[1] = target: human insulin receptor (INSR) overexpressed in immortalised human podocytes (hWT-IR) (human) (UniProt P06213); experiment: co-IP; INSR precipitated from hWT-IR human podocyte lysate with anti-INSR beta subunit antibody (CT-1) cross-linked to protein G Dynabeads; western blot; cells with 100 nM insulin (time points), with or without palmitate, palmitate with nocodazole; integrin β1 as control
[2] = target: integrin β1 (human (endogenous in human podocytes)) (UniProt P05556); experiment: as above
[3] = target: human insulin receptor (INSR) overexpressed in immortalised human podocytes (hWT-IR) (human) (UniProt P06213); experiment: condition: only cells treated with nocodazole (microtubules disrupted); co-IP; INSR precipitated from hWT-IR human podocyte lysate; cells treated with nocodazole to disrupt microtubules (without palmitate); western blot

binding [2]: no binding
B1: doublecortin domain-containing protein 2 (DCDC2) (protein, UniProt Q9UHG0 1-476)
chain: MSGSSARSSHLSQPVVKSVLVYRNGDPFYAGRRVVIHEKKVSSFEVFLKEVTGGVQAPFGAVRNIYTPRTGHRIRKLDQIQSGGNYVAGGQEAFKKLNYLDIGEIKKRPMEVVNTEVKPVIHSRINVSARFRKPLQEPCTIFLIANGDLINPASRLLIPRKTLNQWDHVLQMVTEKITLRSGAVHRLYTLEGKLVESGAELENGQFYVAVGRDKFKKLPYSELLFDKSTMRRPFGQKASSLPPIVGSRKSKGSGNDRHSKSTVGSSDNSSPQPLKRKGKKEDVNSEKLTKLKQNVKLKNSQETIPNSDEGIFKAGAERSETRGAAEVQEDEDTQVEVPVDQRPAEIVDEEEDGEKANKDAEQKEDFSGMNGDLEEEGGREATDAPEQVEEILDHSEQQARPARVNGGTDEENGEELQQVNNELQLVLDKERKSQGAGSGQDEADVDPQRPPRPEVKITSPEENENNQQNKDYAAVA
binding [1]: binds
binding [3]: no binding
